These are yes or no findings as the source states them, for the method shown. Some results given as binding are weak or reduced against the parent protein; the word gives no strength.

This assay addresses T1, CD55 (UniProt P08174 35-353, limits assumed).
T1 construct: whole, on cells; also called CD55 on Rituximab resistant Raji cells (RRCL)
T1 sequence (looked up): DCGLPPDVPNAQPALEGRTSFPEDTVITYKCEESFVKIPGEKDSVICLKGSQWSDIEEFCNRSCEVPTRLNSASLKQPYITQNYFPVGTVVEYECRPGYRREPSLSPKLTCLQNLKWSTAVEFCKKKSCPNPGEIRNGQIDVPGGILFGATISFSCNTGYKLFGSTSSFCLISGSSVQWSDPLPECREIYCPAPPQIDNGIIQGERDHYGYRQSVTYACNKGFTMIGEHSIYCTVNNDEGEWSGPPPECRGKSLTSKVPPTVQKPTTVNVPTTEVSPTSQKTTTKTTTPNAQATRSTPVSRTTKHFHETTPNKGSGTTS
Nature of the assay: flow cytometry binding to MDA231 cells at 0.63 µg/mL antibody, Cy3 goat anti-human IgG detection.

B1: Anti-CD55 homodimer IgG (CD55 v2) containing the designed VH sequence (SEQ ID NO: 5) and the common VL2 sequence (SEQ ID NO: 7) (antibody, V domains shown)
VH: QVKLQESGGGLVKPGGSLKLSCAASGFTFSGYGMSWIRQTPGKRLEWVATINSGGSYTYYSDSVKGRFTISRDNVKNTLYLQMSSLKSEDTAMYYCARRNGTLYYYLMDYWGRGTLVTVSS
VL: QSALTQPASVSGSPGQSITISCTGTSSDVGGYNYVSWYQQHPGKAPKLMIYDVSNRPSGVSNRFSGSKSGNTASLTISGLQAEDEADYYCSSYTSSSTRIFGGGTKVTVLR
On to B1, for which the binding entry was “binds”.

These data come from patent US20220169728A1 (AB THERAPEUTICS, published 2022).
